Results deposited as PubChem BioAssay AID1224830 (NIAID, 2016)
The whole screen tested about 18,000 reagents; shown is a part drawn at random. About 2,900 of all reagents (16%) were called active. 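Calls are made per well; low scores hint the gene aids the LPS response, high scores that it dampens it.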 A number with no mark means an inactive call. Repeated entries: four replicate wells of each siRNA pool. Reagent sequences are not shown.

- Purpose: 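Genes whose knock-down alters the TNF-alpha reporter response to LPS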 (primary screen)
- System: human THP-1 monocytic leukaemia cells, TNF dual-luciferase reporter clone, PMA-differentiated to macrophage-like cells
- Knock-down reagent: siRNA pool against human genes, 50 nM
- Timing: LPS for 4 h, given about 3 days after siRNA transfection
- Treatment: bacterial LPS (TLR4 ligand), 10 ng/ml
- Read-out: 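TNF firefly reporter luminescence divided by renilla, normalised to the plate median, then turned into a robust z-score for each replicate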
- Reading the numbers: TNF reporter robust z-score: higher = stronger TNF reporter response to LPS
- Rule for the call: 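Each well counts as active if its z-score is over 2.8 or under -1.5; controls are left without a call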

| gene | PubChem SID | TNF reporter robust z-score |
| --- | --- | --- |
| CCL19 (C-C motif chemokine ligand 19) | SID315451341 | 0.39 |
| CCL19 (C-C motif chemokine ligand 19) | SID315451341 | 0.33 |
| CCL19 (C-C motif chemokine ligand 19) | SID315451341 | 2.28 |
| CCL19 (C-C motif chemokine ligand 19) | SID315451341 | 1.63 |
| OR11A1 (olfactory receptor family 11 subfamily A member 1) | SID315455811 | -0.69 |
| OR11A1 (olfactory receptor family 11 subfamily A member 1) | SID315455811 | -0.4 |
| OR11A1 (olfactory receptor family 11 subfamily A member 1) | SID315455811 | 0.52 |
| OR11A1 (olfactory receptor family 11 subfamily A member 1) | SID315455811 | 0.74 |
| MRPL13 (mitochondrial ribosomal protein L13) | SID315456107 | -0.96 |
| MRPL13 (mitochondrial ribosomal protein L13) | SID315456107 | -0.58 |
| MRPL13 (mitochondrial ribosomal protein L13) | SID315456107 | -0.3 |
| MRPL13 (mitochondrial ribosomal protein L13) | SID315456107 | 1.29 |
| ALLC (allantoicase) | SID315457885 | 0.19 |
| ALLC (allantoicase) | SID315457885 | 0.54 |
| ALLC (allantoicase) | SID315457885 | 0.24 |
| ALLC (allantoicase) | SID315457885 | 0.6 |
| ZNF652 (zinc finger protein 652) | SID315454803 | 0.13 |
| ZNF652 (zinc finger protein 652) | SID315454803 | -0.7 |
| ZNF652 (zinc finger protein 652) | SID315454803 | -0.26 |
| ZNF652 (zinc finger protein 652) | SID315454803 | 1.07 |
| RSPH4A (radial spoke head component 4A) | SID315464195 | -1.21 |
| RSPH4A (radial spoke head component 4A) | SID315464195 | -0.1 |
| RSPH4A (radial spoke head component 4A) | SID315464195 | 0.05 |
| RSPH4A (radial spoke head component 4A) | SID315464195 | -0.3 |
| UGT3A2 (UDP glycosyltransferase family 3 member A2) | SID315462850 | 1.44 |
| UGT3A2 (UDP glycosyltransferase family 3 member A2) | SID315462850 | 1.14 |
| UGT3A2 (UDP glycosyltransferase family 3 member A2) | SID315462850 | 0.9 |
| UGT3A2 (UDP glycosyltransferase family 3 member A2) | SID315462850 | 1.11 |
| UNC5CL (unc-5 family C-terminal like) | SID315463351 | -0.13 |
| UNC5CL (unc-5 family C-terminal like) | SID315463351 | -0.56 |
| UNC5CL (unc-5 family C-terminal like) | SID315463351 | -0.01 |
| UNC5CL (unc-5 family C-terminal like) | SID315463351 | -0.4 |
| GATM (glycine amidinotransferase) | SID315448848 | 0.02 |
| GATM (glycine amidinotransferase) | SID315448848 | 0.25 |
| GATM (glycine amidinotransferase) | SID315448848 | 0.11 |
| GATM (glycine amidinotransferase) | SID315448848 | 0.32 |
| PDCD2L (programmed cell death 2 like) | SID315460316 | 2.64 |
| PDCD2L (programmed cell death 2 like) | SID315460316 | 1.92 |
| PDCD2L (programmed cell death 2 like) | SID315460316 | 3.51 (active) |
| PDCD2L (programmed cell death 2 like) | SID315460316 | 2.95 (active) |
| GRWD1 (glutamate rich WD repeat containing 1) | SID315460079 | 1.35 |
| GRWD1 (glutamate rich WD repeat containing 1) | SID315460079 | 2.51 |
| GRWD1 (glutamate rich WD repeat containing 1) | SID315460079 | 1.99 |
| GRWD1 (glutamate rich WD repeat containing 1) | SID315460079 | 0.76 |
| KRT26 (keratin 26) | SID315464286 | 0.44 |
| KRT26 (keratin 26) | SID315464286 | -0.37 |
| KRT26 (keratin 26) | SID315464286 | -0.48 |
| KRT26 (keratin 26) | SID315464286 | 0.74 |
| NDUFA13 (NADH:ubiquinone oxidoreductase subunit A13) | SID315456450 | -0.66 |
| NDUFA13 (NADH:ubiquinone oxidoreductase subunit A13) | SID315456450 | -0.73 |
| NDUFA13 (NADH:ubiquinone oxidoreductase subunit A13) | SID315456450 | -0.4 |
| NDUFA13 (NADH:ubiquinone oxidoreductase subunit A13) | SID315456450 | 0.46 |
| KIN (Kin17 DNA and RNA binding protein) | SID315454894 | 3.84 (active) |
| KIN (Kin17 DNA and RNA binding protein) | SID315454894 | 2.06 |
| KIN (Kin17 DNA and RNA binding protein) | SID315454894 | 3.87 (active) |
| KIN (Kin17 DNA and RNA binding protein) | SID315454894 | 5.97 (active) |
| ZNF92 (zinc finger protein 92) | SID315462863 | 0.09 |
| ZNF92 (zinc finger protein 92) | SID315462863 | 2.38 |
| ZNF92 (zinc finger protein 92) | SID315462863 | -0.46 |
| ZNF92 (zinc finger protein 92) | SID315462863 | -0.29 |
| TDRKH (tudor and KH domain containing) | SID315454541 | 0.71 |
| TDRKH (tudor and KH domain containing) | SID315454541 | 0.02 |
| TDRKH (tudor and KH domain containing) | SID315454541 | 1.13 |
| TDRKH (tudor and KH domain containing) | SID315454541 | -0.56 |
| MCEMP1 (mast cell expressed membrane protein 1) | SID315462997 | -0.53 |
| MCEMP1 (mast cell expressed membrane protein 1) | SID315462997 | 0.13 |
| MCEMP1 (mast cell expressed membrane protein 1) | SID315462997 | -0.07 |
| MCEMP1 (mast cell expressed membrane protein 1) | SID315462997 | 0.17 |
| GABARAPL2 (GABA type A receptor associated protein like 2) | SID315454777 | -1.16 |
| GABARAPL2 (GABA type A receptor associated protein like 2) | SID315454777 | -1.39 |
| GABARAPL2 (GABA type A receptor associated protein like 2) | SID315454777 | -1.2 |
| GABARAPL2 (GABA type A receptor associated protein like 2) | SID315454777 | -1.05 |
| NSDHL (NAD(P) dependent 3-beta-hydroxysteroid dehydrogenase NSDHL) | SID315456359 | 0.41 |
| NSDHL (NAD(P) dependent 3-beta-hydroxysteroid dehydrogenase NSDHL) | SID315456359 | 0.91 |
| NSDHL (NAD(P) dependent 3-beta-hydroxysteroid dehydrogenase NSDHL) | SID315456359 | 0.79 |
| CPXCR1 (CPX chromosome region candidate 1) | SID315456904 | -1.33 |
| CPXCR1 (CPX chromosome region candidate 1) | SID315456904 | -0.7 |
| CPXCR1 (CPX chromosome region candidate 1) | SID315456904 | -0.79 |
| CPXCR1 (CPX chromosome region candidate 1) | SID315456904 | -0.78 |
| EML1 (EMAP like 1) | SID315448498 | -1.1 |
| EML1 (EMAP like 1) | SID315448498 | -0.54 |
| EML1 (EMAP like 1) | SID315448498 | -0.93 |
| EML1 (EMAP like 1) | SID315448498 | -0.18 |
| SLC5A12 | SID315462692 | 1.04 |
| SLC5A12 | SID315462692 | 1.33 |
| SLC5A12 | SID315462692 | -0.62 |
| SLC5A12 | SID315462692 | -0.06 |
| FITM2 (fat storage inducing transmembrane protein 2) | SID315461800 | 1.39 |
| FITM2 (fat storage inducing transmembrane protein 2) | SID315461800 | 0.39 |
| FITM2 (fat storage inducing transmembrane protein 2) | SID315461800 | 1.74 |
| FITM2 (fat storage inducing transmembrane protein 2) | SID315461800 | 0.1 |
| TPD52L1 (TPD52 like 1) | SID315451948 | -0.2 |
| TPD52L1 (TPD52 like 1) | SID315451948 | -0.34 |
| TPD52L1 (TPD52 like 1) | SID315451948 | 0.47 |
| TPD52L1 (TPD52 like 1) | SID315451948 | 0.67 |
| INCA1 (inhibitor of CDK, cyclin A1 interacting protein 1) | SID315464475 | 1.15 |
| INCA1 (inhibitor of CDK, cyclin A1 interacting protein 1) | SID315464475 | 5.81 (active) |
| INCA1 (inhibitor of CDK, cyclin A1 interacting protein 1) | SID315464475 | 0.53 |
| VAMP4 (vesicle associated membrane protein 4) | SID315452737 | -0.16 |
| VAMP4 (vesicle associated membrane protein 4) | SID315452737 | 0.75 |
| VAMP4 (vesicle associated membrane protein 4) | SID315452737 | 0.35 |
| VAMP4 (vesicle associated membrane protein 4) | SID315452737 | 0.31 |
| ZNF32 (zinc finger protein 32) | SID315452211 | 1.3 |
| ZNF32 (zinc finger protein 32) | SID315452211 | 0.29 |
| ZNF32 (zinc finger protein 32) | SID315452211 | 6.48 (active) |
| ZNF32 (zinc finger protein 32) | SID315452211 | 1.31 |
| CDC42 (cell division cycle 42) | SID315447825 | -1.08 |
| CDC42 (cell division cycle 42) | SID315447825 | -1.22 |
| CDC42 (cell division cycle 42) | SID315447825 | -1.18 |
| CDC42 (cell division cycle 42) | SID315447825 | -0.68 |
